PMC5510845
Results are given in words; binding and its absence hold for the method and conditions named. In cells and extracts the contact can be indirect. A result given as binding can be weak or reduced; the word gives no strength. Sequences can lack the tags named with a protein.

Target: protein A tagged GRγ (co-IP) (rat)
Assay: co-IP; luciferase-based co-IP; PA-tagged GR precipitated from cleared T-Rex 293 cell extract in IgG-coated microtiter plates, 1 h at 4°C; firefly-V5-tagged partner read by luciferase activity, as fold change over protein A only; cells treated for 1 h with 1 μM dexamethasone or ethanol vehicle

B1: firefly-V5-tagged JDP2 (Jun dimerization protein-2, co-IP) (protein, UniProt Q8WYK2-2 1-174)
chain: MVAGWPATPPAMMPGQIPDPSVTTGSLPGLGPLTGLPSSALTVEELKYADIRNLGAMIAPLHFLEVKLGKRPQPVKSELDEEEERRKRRREKNKVAAARCRNKKKERTEFLQRESERLELMNAELKTQIEELKQERQQLILMLNRHRPTCIVRTDSVKTPESEGNPLLEQLEKK
  binding: binds

B2: luciferase-BATF3 fusion protein (firefly-V5-tagged BATF3, co-IP) (protein, UniProt Q9NR55 1-127)
chain: MSQGLPAAGSVLQRSVAAPGNQPQPQPQQQSPEDDDRKVRRREKNRVAAQRSRKKQTQKADKLHEEYESLEQENTMLRREIGKLTEELKHLTEALKEHEKMCPLLLCPMNFVPVPPRPDPVAGCLPR
  binding: binds
